Values from PubChem BioAssay AID652272 (Drosophila RNAi Screening Center, 2013)

- Screen: 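Finding fly genes that regulate Hedgehog signal transduction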 (primary screen)
- Cell system: Drosophila clone 8 (Cl8) cells
- Knock-down reagent: long dsRNA against Drosophila genes
- Read-out: 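Firefly light from a Hedgehog-responsive ptc promoter reporter and Renilla reference light, both read on a plate reader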
- Scale: firefly Hh reporter signal: higher = more ptc reporter light; Renilla reference signal: higher = more Renilla control light
- Active means: 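Hit when the z-score averaged over two replicates is under -2 or over +3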
- Meaning of the calls: active = hit: reporter lowered or raised; inactive = not a hit
The screen tested about 21,000 reagents; shown is a random part of those with a known target gene and a result. Of all reagents, 503 (2.4%) got an active call. 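Raw plate light values, not normalised; calls rest on replicate z-scores that were not deposited; hits include reporter decreases as well as increases.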 Entries without a mark were called inactive. The numbers tell different reagents against one gene apart. Names joined by + are all predicted targets of the reagent. Not given: the amount of reagent, the time to read-out.

predicted target,reagent no.,"firefly Hh reporter signal, replicate 1","firefly Hh reporter signal, replicate 2","firefly Hh reporter signal, replicate 3","Renilla reference signal, replicate 1","Renilla reference signal, replicate 2"
CG7763,1,69088,74227,,1952,5136
CG32512,1,1.53e5,7.22e5,3.47e5,5784,5738
CG32512,2,1.07e5,68039,,6535,3032
CG6184,1,4.88e5,98577,,27664,3805
CG11608,1,84018,1.48e5,,3201,4176
Mau2,1,1.07e5,87948,,4203,3257
CG15249,1,1.05e5,3.35e5,,3254,12490
CG33229,1,1.37e5,3.10e5,,3941,12828
CG11961,1,1.37e5,1.01e5,,6688,4089
mip120,1,93251,50151,,2656,4441
CG2962,1,1.02e5,96208,,2083,2486
rdo,1,53066,96032,,2512,3699
Ranbp21,1,1.00e5,72627,,1996,1755
CG5043,1,67556,52288,,1722,4713
CG12637,1,60226,2.96e5,,1584,10960
CG5849,1,5.82e5,1.62e5,,26096,2816
Oda,1,72673,37132,,2099,3126
mthl10,1,80120,34880,,2763,2624
mthl10,2,1.31e5,60154,,4939,4616
insv,1,93275,78843,,2137,1968
CG13901,1,61379,41008,,1505,2928
mRpS2,1,1.48e5,1.31e5,,4061,7504
Cyp4p3,1,1.40e5,76322,,4374,6432
flfl,1,1.58e5,1.03e5,,5261,3947
CG12147,1,50472,92438,,1920,2091
HIP + HIP-R,1,2.05e5,1.15e5,,4491,3769
unpg,1,71851,41169,,1715,3488
Usp15-31,1,1.99e5,1.29e5,,6690,4261
Usp15-31,2,54240,33104,,1516,2859
CR17024,1,2.22e5,83324,,5860,8199
CG5953,1,81928,2.09e5,,2642,9161
CG5953,2,75308,26325,,1603,1882
puml,1,77729,48237,,1882,3686
Gr59f,1,67684,52220,,1784,3781
Rbsn-5,1,95517,54985,,3898,2611
Strip,1,57092,37785,,3202,2026
RabX2,1,1.01e5,4.70e5,3.30e5,3593,4470
side-II,1,1.43e5,3.02e5,,4544,14725
side-II,2,1.09e5,1.96e5,,3540,9947
side-II,3,1.22e5,89564,,3523,7137
side-II,4,1.50e5,6.11e5,83194,4028,34346
side-II,5,2.00e5,93785,,5105,8790
CG2861,1,62368,1.87e5,,1729,7036
CG7341,1,67570,54489,,2732,1852
Surf6,1,1.02e5,80471,,4852,3762
CG13716,1,79236,5.82e5,69318,8464,29013
CG18417,1,59260,60169,,7385,4342
Nmda1,1,88529,48544,,3689,1972
AGBE,1,1.27e5,36780,,4156,1155
Arfip,1,1.24e5,1.07e5,,4938,3747
CG31296,1,44155,1.66e5,,10069,3504
CG6425,1,1.07e5,67560,,2613,1589
CG42822,1,47032,2.97e5,,10260,6571
beat-VII,1,55852,2.48e5,,15040,6685
beat-VII,2,86386,1.07e5,,2422,3792
beat-VII,3,1.05e5,1.35e5,,3303,4112
mura,1,41834,73248,,1545,2603
mura,2,22630,16545,,1089,709
